The text below walks through data of patent US20150276714A1, “METHOD OF IDENTIFYING OR EVALUATING BENEFICIAL ACTIVES AND COMPOSITIONS CONTAINING THE SAME” (The Procter & Gamble Company, priority 2012, published 2015).

“And” between values parts separate entries of the source, which are not always exact repeats. Equal values may be shown once. The source gives many values for each of these; only a part stands here.

In this experiment the test system is human dermal fibroblasts (BJ cell line). In words: Extracellular acidification rate (glycolysis), XF Extracellular Flux Analyzer. Particulars: plate 2, 1.0 mM niacinamide alone. In kind it is cell-based. From the text: This method enables the non-lethal, simultaneous detection of metabolic indicators associated with the oxidative phosphorylation and glycolysis metabolic pathways in a controlled environment. The method also enables the collection of kinetic data. When assessing the metabolic response to a stressor or test agent, it is important to assess both metabolic pathways simultaneously to understand how the two metabolic pathways interact with the stressor or test agent and/or to one another. Additionally, it is important to monitor the metabolic pathways in real time (i.e., repeating periodic measurements) to observe trends and/or transient responses that may be missed when using methods that provide only static data. Thus, destructive tests are not suitable for use herein since they typically only allow for a single measurement. With regard to the fibroblasts discussed above in FIGS. 5A, 5B, 5C, 5D, 5E, 6, 7A, 7B, 7C, 7D, 7E and 8, frozen human dermal fibroblasts were obtained from the BJ cell line commercially available from ATCC, Bethesda, Md. The fibroblasts were grown to 70-80% confluence in a culture medium of Eagle's Minimum Essential Medium (“EMEM”) supplemented with 10% fetal bovine serum (“FBS”) and gentamicin/amphotericin B ×500 solution (EMEM and FBS are available from ATCC, and gentamicin/amphotericin B ×500 solution is available from Invitrogen). The fibroblasts were plated at 1×10^5 cells per well in Gelatin-coated plates 24 hours prior to testing. Each well included 100 μL of the fibroblast medium described above. A test medium was made from Dulbecco's Modified Eagle Medium (available from Seahorse Bioscience), 25 mM glucose and 1 mM pyruvate. The test medium was warmed to 37° C. and the pH adjusted to 7.4. The cells were grown and plated at 37° C. and 5% CO2 air. The fibroblast medium in the wells was replaced by the test medium 1 hour prior to taking measurements. Oxygen consumption rate and extracellular acidification rate may be detected using an XF Extracellular Flux Analyzer or equivalent. The device should be capable of non-lethally and simultaneously detecting metabolic indicators of the oxphos and glycolysis pathways in a controlled environment, as well as providing kinetic data. The cells may be provided in a multi-well plate suitable for use with the instrument (e.g., 24-well plate or 96-well plate) and washed prior to testing. The cells may be washed by any suitable means known in the art (e.g., using a Seahorse Biosciences XF prep station). When washing the cells, it may be desirable to remove the medium from the wells and wash the cells three times with a suitable amount of test medium (e.g., 180 μL in a 96-well plate or 600 μL in a 24-well plate). After washing the cells, a suitable amount of test medium is placed in each well, and the cells are equilibrated at 37° C. in a CO2-free incubator for 1-1.5 hours prior to placing the plate in the instrument for testing. Following the equilibration period, load the plate containing the cells into the instrument and equilibrate according to manufacturer's instructions. The entire test is conducted at 37° C. In some embodiments, it may be desirable to set the instrument to provide a three minute mix cycle, a two minute wait cycle, and a 3 minute measurement cycle for keratinocytes and a two minute mix cycle, two minute wait cycle and 3 minute measurement cycle for fibroblasts. The cycles should be repeated for at least 88 minutes. It is to be appreciated that the cycles and times may be modified according to cell type and experiment design, as desired. The following example illustrates how the method herein can be used to identify skin care actives. […] The test agent is niacinamide (also known as vitamin B3), which is commercially available from Sigma. The test agent was prepared at 10× the final working concentration in the fibroblast test medium described above to provide a test agent solution. […]

Turning to `NC(=O)c1cccnc1` [niacinamide], the ECAR was 28 mpH/min and 44 mpH/min and 34 mpH/min and 41 mpH/min and 25 mpH/min (measurement 4 (added after measurement 3)); 38 mpH/min and 52 mpH/min and 44 mpH/min and 49 mpH/min and 39 mpH/min (measurement 5); 38 mpH/min and 52 mpH/min and 44 mpH/min and 50 mpH/min and 39 mpH/min (measurement 6); 38 mpH/min and 52 mpH/min and 43 mpH/min and 49 mpH/min (measurement 7); 37 mpH/min and 52 mpH/min and 42 mpH/min and 49 mpH/min and 38 mpH/min (measurement 8); 37 mpH/min and 52 mpH/min and 42 mpH/min and 48 mpH/min (measurement 9). Moreover, the ECAR (measurement 10) was 37 mpH/min and 52 mpH/min and 41 mpH/min and 48 mpH/min and 36 mpH/min; the ECAR (measurement 11) is 36 mpH/min and 51 mpH/min and 40 mpH/min and 48 mpH/min and 35 mpH/min.
